Assay results as given in PubChem BioAssay (NCATS).
Where “and” joins values, the source holds several entries; their conditions need not be identical. Identical values can stand only once. The list shows a part of the results. Further columns of the screen follow, without active or inactive calls. The list favours compounds with an active or inconclusive main result.

Assay: qHTS assay for small molecule agonists of retinoid X receptor alpha signaling (AID 588544)
Conditions: HEK293T RXRa-UAS-bla, beta-lactamase reporter, 18 h; 530 nm emission

With `CCCCC(O)(Cn1cncn1)c1ccc(Cl)cc1Cl` (centres undefined) as the compound, how does the max response read?
The max response was 20.4%.

For `Cc1cccc(O)c1`, which max response is on record?
The max response was -9.62%.

Which max response does the source give for `CCO/N=C(\CC)C1=C(O)CC(c2c(C)cc(C)cc2C)CC1=O` (centres undefined) here?
Its max response is -15.8%.

Which max response does the source give for `O=C(O)COc1nc(Cl)c(Cl)cc1Cl` here?
The max response was -1.68%.

With `COC1=CC(=O)O[C@@H](/C=C/c2ccc3c(c2)OCO3)C1` as the compound, how does the max response read?
Its max response is 36.8%.

With `O=C/C(Cl)=C(/Cl)C(=O)O` as the compound, how does the max response read?
The max response was 15.1%.

With `Cc1c(COC(=O)C2C(/C=C(\Cl)C(F)(F)F)C2(C)C)cccc1-c1ccccc1` (centres undefined) as the compound, how does the max response read?
Its max response is 39%.

With `C[C@H]1[C@H](c2ccc(Cl)cc2)SC(=O)N1C(=O)NC1CCCCC1` as the compound, how does the max response read?
Its max response is 27.5%.

Which max response does the source give for `Cn1cc(-c2ccccc2)c(=O)c(-c2cccc(C(F)(F)F)c2)c1` here?
Its max response is 13.7%.

For `COCc1cnc(C2=NC(C)(C(C)C)C(=O)N2)c(C(=O)O)c1` (centres undefined), which max response is on record?
Its max response is -12.4%.

For `CC1(C)[C@@H](C=C(Cl)Cl)[C@@H]1C(=O)OCc1cccc(Oc2ccccc2)c1`, which max response is on record?
The max response was 2.62%.

Which max response does the source give for `CC(C)C(C(=O)OC(C#N)c1cccc(Oc2ccccc2)c1)c1ccc(Cl)cc1` (centres undefined) here?
Its max response is 9.63%.

For `CC1(C)C(C=C(Cl)Cl)C1C(=O)OCc1cccc(Oc2ccccc2)c1` (centres undefined), which max response is on record?
The max response was 27.9% and -12.2%.

For `COC[C@H](C)N(C(=O)CCl)c1c(C)csc1C`, which max response is on record?
Its max response is 12.5%.

For `Cc1cc(-c2ccc(N)c(C)c2)ccc1N`, which max response is on record?
The max response was 27.1%.

With `CCOP(=S)(OCC)Oc1nc(Cl)n(C(C)C)n1` as the compound, how does the max response read?
Its max response is 7.92%.

For `Nc1ccc([N+](=O)[O-])cc1N`, which max response is on record?
Its max response is 9.87%.

For `Nc1ccccc1C(=O)OCCc1ccccc1`, which max response is on record?
Its max response is 17.5%.

With `Clc1ccc([C@@]2(Cn3cncn3)C[C@@H](Br)CO2)c(Cl)c1` as the compound, how does the max response read?
The max response was 0.585%.

Which max response does the source give for `COc1ccccc1[N+](=O)[O-]` here?
Its max response is -6.79%.

For `COC(=O)C(c1ccccc1)C1CCCCN1` (centres undefined), which max response is on record?
The max response was 6.11%.

Which max response does the source give for `COc1ccc(-c2ccccc2)cc1NNC(=O)OC(C)C` here?
The max response was -3.14%.

Which max response does the source give for `Brc1ccc(Oc2ccc(Br)cc2Br)c(Br)c1` here?
The max response was -4.91%.

For `CCS(=O)(=O)c1cccnc1S(=O)(=O)NC(=O)Nc1nc(OC)cc(OC)n1`, which max response is on record?
The max response was -3.06%.

With `Nc1cc(Cl)ccc1O` as the compound, how does the max response read?
The max response was 14.5%.

With `CCOc1ccc(NC(=O)OC(C)C)cc1OCC` as the compound, how does the max response read?
The max response was 2.05%.

With `C=CC1(C)OC(=O)N(c2cc(Cl)cc(Cl)c2)C1=O` (centres undefined) as the compound, how does the max response read?
Its max response is 2.73%.

With `CCOP(=S)(OCC)Oc1cnc2ccccc2n1` as the compound, how does the max response read?
The max response was -0.423%.

Which max response does the source give for `O=S1OC[C@@H]2[C@H](CO1)[C@@]1(Cl)C(Cl)=C(Cl)[C@]2(Cl)C1(Cl)Cl` (some centres undefined) here?
The max response was 3.34%.

With `S=C([S-])NCCNC(=S)[S-].S=C([S-])NCCNC(=S)[S-].[Mn+2].[Zn+2]` as the compound, how does the max response read?
Its max response is -1.63%.

With `Nc1ccc(Cc2ccc(N)cc2)cc1` as the compound, how does the max response read?
The max response was 2.75%.

With `O=S(=O)(c1ccc(Cl)cc1)c1ccc(Cl)cc1` as the compound, how does the max response read?
Its max response is 2.66%.

Which max response does the source give for `ClC1=C(Cl)C2(Cl)C3C(Cl)C=CC3C1(Cl)C2(Cl)Cl` (centres undefined) here?
The max response was 19.2%.

Which max response does the source give for `CC1CCCCC1NC(=O)Nc1ccccc1` (centres undefined) here?
The max response was 7.9%.

Which max response does the source give for `CC(O)CN(CC(C)O)CC(C)O` (centres undefined) here?
Its max response is -15.2%.

For `CNc1cnn(-c2cccc(C(F)(F)F)c2)c(=O)c1Cl`, which max response is on record?
The max response was 6.95%.

Which max response does the source give for `CCCC(C)(COC(N)=O)COC(N)=O` here?
The max response was -18.3%.

For `CC(C)CC(C)Nc1ccc(Nc2ccccc2)cc1` (centres undefined), which max response is on record?
Its max response is 15.7%.

With `COC(=O)c1ccccc1S(=O)(=O)NC(=O)Nc1nc(C)nc(OC)n1` as the compound, how does the max response read?
Its max response is 5.75%.
